PubChem BioAssay AID504804, Drosophila RNAi Screening Center – 2011

Screen: 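dsRNAs that improve Kc cell survival under doxorubicin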 (primary screen)
Cells: Drosophila Kc cells
Knock-down reagent: long dsRNA against Drosophila genes, 0.5 µg dsRNA per well
Time to read-out: 96 h (48 h knock-down, then 48 h drug)
Treatment: doxorubicin 5 µg/ml for 48 h, added 48 h after dsRNA
Read-out: 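Viability measured as cellular ATP by luminescence after 48 h knock-down then 48 h doxorubicin at 5 µg/ml; unnormalised plate counts for each replicate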
Direction: raw ATP luminescence: higher = more viable cells, protection from doxorubicin
Active means: 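z-score of 2 or more over plate mean in both duplicates, retained only when retests and separate dsRNAs confirm the protection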
The screen tested about 19,000 reagents; shown is a random part of those that have a named target and a result. Over the whole deposit, 47 (0.25%) were called active. 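Signals are raw, not normalised; exact z-scores behind calls not deposited; actives needed confirmation, so some wells reaching 2 SD are inactive.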 Reagents against one gene are numbered here. Names joined by + are all predicted targets of the reagent. Reagent sequences are not shown.

| SD above plate mean | raw ATP luminescence, replicate 1 | raw ATP luminescence, replicate 2 | Call | gene | reagent |
| --- | --- | --- | --- | --- | --- |
| – | 38920 | 26887 | inactive | CG11905 | 1 |
| – | 47767 | 42607 | inactive | fok | 1 |
| – | 2.86e5 | 2.86e5 | inactive | CG2887 | 1 |
| – | 53857 | 82933 | inactive | CG1941 | 1 |
| – | 1.22e5 | 1.08e5 | inactive | CG32119 | 1 |
| – | 39177 | 42527 | inactive | CG17930 | 1 |
| – | 3.43e5 | 2.90e5 | inactive | Grx5 | 1 |
| – | 2.29e5 | 1.88e5 | inactive | svp | 1 |
| – | 18100 | 20087 | inactive | svp | 2 |
| – | 59280 | 48600 | inactive | svp | 3 |
| at least 3 SD above plate mean | 57420 | 47220 | active | polo | 1 |
| – | 62413 | 50877 | inactive | CG11737 | 1 |
| – | 70540 | 88790 | inactive | CG6912 | 1 |
| – | 4.14e5 | 3.71e5 | inactive | Obp18a | 1 |
| – | 40367 | 60277 | inactive | PrBP | 1 |

Looked up above:
Result of Grx5 in “raw ATP luminescence, replicate 1”: 3.43e5
Value for PrBP in “raw ATP luminescence, replicate 2”: 60277

Further reagents:
| SD above plate mean | raw ATP luminescence, replicate 1 | raw ATP luminescence, replicate 2 | Call | gene | reagent |
| --- | --- | --- | --- | --- | --- |
| – | 25003 | 24330 | inactive | CG15404 | 1 |
| – | 53980 | 67700 | inactive | Sf3b3 | 1 |
| – | 70050 | 52980 | inactive | qin | 1 |
| – | 62480 | 74700 | inactive | Or94a | 1 |
| – | 51550 | 54127 | inactive | Septin2 | 1 |
| – | 67080 | 42640 | inactive | CG6937 + btn | 1 |
| – | 90683 | 82463 | inactive | ATPsynCF6L | 1 |
| – | 43343 | 34970 | inactive | CG34149 | 1 |
| – | 66740 | 67340 | inactive | tweek | 1 |
| – | 59090 | 62380 | inactive | tweek | 2 |
| – | 50213 | 50533 | inactive | tweek | 3 |
| – | 83253 | 61523 | inactive | Vps35 | 1 |
| – | 49570 | 22330 | inactive | tko | 1 |
| – | 3.25e5 | 3.32e5 | inactive | CG2111 | 1 |
| – | 77547 | 61680 | inactive | CG32214 | 1 |
| – | 33227 | 50823 | inactive | Atg6 | 1 |
| – | 49453 | 85627 | inactive | CG12929 | 1 |
| – | 1.12e5 | 1.42e5 | inactive | Or65b | 1 |
| – | 47720 | 45830 | inactive | CG12877 | 1 |
